Test results published in PubChem BioAssay AID504648 (National Center for Advancing Translational Sciences (NCATS), 2011).
The campaign covered roughly 390,000 compounds. About 610 (0.16%) were called active. Inconclusive results, whose numbers are uncertain, are shown with a selection of clear calls. Calls follow the shape of the dose curve; as a rule, active = well fitted inhibition curve with a large enough effect; inconclusive = small, poorly fitted or top-dose-only effect, or effect the other way, or another doubt; inactive = no such curve, though single readings can be large or run the other way. A potency beside an inconclusive call is a rough fit, not a confirmed value.

Experiment: Nrf2 qHTS screen for inhibitors: counterscreen for cytotoxicity
Conditions: A549 ARE-Fluc cells, CellTiter-Fluor viability, 18-24 h; series mostly up to 46 µM
In short: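 A549 ARE-Fluc cells in 5% FBS OPTI-MEM, 5000 cells/well, rested 2 h then exposed to compounds in concentration-response for 18-24 h at 37 °C. Viability by CellTiter-Fluor fluorescence (Ex 405/Em 525) after 30 min; luciferase luminescence (BugLite, 15 min, RT) read afterwards.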
Potency is read from the fitted curve at half-maximal effect.

| Structure (SMILES) | Potency |
| --- | --- |
| CC/C(=N\Nc1ccccc1[N+](=O)[O-])c1ccc(O)cc1 | inconclusive: 9.2 µM [falling, single point] |
| Cc1cccc(OCC(=O)NCC2(N3CCN(C)CC3)CCCCC2)c1C | inconclusive: 32.6 µM [falling, partial curve, poor fit] |
| NCCNc1cc(N2CCCC2)ccc1[N+](=O)[O-] | inconclusive: 20.6 µM [falling, partial curve, poor fit] |
| COc1cc(C=O)ccc1OCCOc1ccccc1[N+](=O)[O-] | inactive |
| O=C(c1ccc(S(=O)(=O)N2CCOCC2)cc1)N1CCN(c2cccc(Cl)c2)CC1 | inactive |
| Cc1nnc(NC(=O)CCS(=O)(=O)Cc2ccccc2)s1 | inconclusive: 8.2 µM [falling, partial curve, poor fit] |
| C=Cc1cc2c(s1)c1cnn(Cc3ccccc3F)c(=O)c1n2C | inactive |
| CC1CCCN(S(=O)(=O)c2ccc(NC(=O)C3CC(=O)N(c4ccccc4)C3)cc2)C1 (centres undefined) | inconclusive: 29.1 µM [falling, single point] |
| COc1ccccc1C(=O)Nc1c2c(nn1-c1cccc(C)c1C)CS(=O)(=O)C2 | inconclusive: 20.6 µM [falling, partial curve, poor fit] |
| O=C(CSc1nc2ccc([N+](=O)[O-])cc2[nH]1)c1ccc2ccccc2c1 | inconclusive: 29.1 µM [falling, single point] |
| Cc1ccc(NS(=O)(=O)c2c(C)[nH]c(C)c2C(=O)N2CCCCC2)cc1F | inactive |
| CCOc1cc(-c2nnc(SCC(=O)NCc3ccccc3)nc2-c2ccc(OC)c(OCC)c2)ccc1OC | inconclusive: 10.3 µM [falling, partial curve] |
| Cn1nc(C(F)(F)F)c2cc(NC(=O)OCc3ccc(C(C)(C)C)cc3)sc21 | inactive |
| CC1=C(c2ccc(F)cc2)S(=O)(=O)N=C1N1CCC(C(=O)NCCc2ccco2)CC1 | inactive |
| Cc1cccc(Cn2c(C)c(C)c3cc(C(=O)NCc4ccco4)ccc32)c1 | inconclusive: 29.1 µM [falling, single point] |
| COc1cc(/C=C/C(=O)Nc2ccc(C)cc2)cc(OC)c1OC | inactive |
| Cc1ccc2c(c1)N(CCC(=O)NCc1ccccn1)C(=O)CO2 | inconclusive: 23.1 µM [activator, partial curve, poor fit] |
| COc1cc2c(C#N)c(N3CCN(c4ccccc4OC)CC3)nc(N)c2c(N)n1 | inconclusive: 32.6 µM [falling, single point] |
| O=C(CN1CCN(Cc2ccc(F)cc2Cl)S1(=O)=O)Nc1ccc(F)cc1 | inactive |

Random excerpt: 2 entries already listed, in no set order.

| Structure (SMILES) | Potency |
| --- | --- |
| COc1cc(C=O)ccc1OCCOc1ccccc1[N+](=O)[O-] | inactive |
| Cc1ccc(NS(=O)(=O)c2c(C)[nH]c(C)c2C(=O)N2CCCCC2)cc1F | inactive |
